According to patent publication US20060275900A1, “Methods for in vitro expansion and transdifferentiation of human pancreatic acinar cells into insulin-producing cells” (Becton, Dickinson and Company, priority 2002, published 2006):

Tested on: primary human pancreatic acinar cells, IP cells, putative insulin producing cells
Test: 12K microarray mRNA expression at Day 3, Day 8 and Day 16 (Tables 6 and 7)
Type: cell-based
[1] = mRNA expression signal on 12K microarray, Day 3 cells (primary human pancreatic acinar cells)
[2] = mRNA expression signal on 12K microarray, Day 8 cells (IP cells)
[3] = mRNA expression signal on 12K microarray, Day 16 cells (putative insulin producing cells)
[4] = mRNA expression signal on 12K microarray, Day 3 culture (primary human pancreatic acinar cells)
[5] = mRNA expression signal on 12K microarray, Day 8 culture (IP cells)
[6] = mRNA expression signal on 12K microarray, Day 16 culture (putative insulin producing cells)
[7] = mRNA expression level of the gene named in the row, 12K microarray, Day 3 culture (primary human pancreatic acinar cells)
[8] = mRNA expression level of the gene named in the row, 12K microarray, Day 8 culture (IP cells)
[9] = mRNA expression level of the gene named in the row, 12K microarray, Day 16 culture (putative insulin producing cells)
[10] = 12K microarray mRNA expression level of the gene at Day 3 (primary human pancreatic acinar cells)
[11] = 12K microarray mRNA expression level of the gene at Day 8 (IP cells)
[12] = 12K microarray mRNA expression level of the gene at Day 16 (putative insulin producing cells)

Substance: carbonic anhydrase II
- day3 [1]: 283.4506
- day8 [2]: 172
- day16 [3]: 195.9099

Substance: neuregulin 1
- day3 [1]: 89.51
- day8 [2]: 234
- day16 [3]: 201.3025

Substance: interleukin 1; alpha
- day3 [4]: 103.386
- day8 [5]: 375
- day16 [6]: 66.6314

Substance: paxillin
- day3 [7]: 313.7788
- day8 [8]: 334
- day16 [9]: 181.2995

Substance: transforming growth factor; beta-
- day3 [4]: 1221.083
- day8 [5]: 2060
- day16 [6]: 8540.86

Substance: connective tissue growth factor
- day3 [10]: 596.4123
- day8 [11]: 537
- day16 [12]: 1071.517

Substance: catalase
- day3 [1]: 160.7098
- day8 [2]: 239
- day16 [3]: 199.9283

Substance: endothelin 1
- day3 [4]: 866.4561
- day8 [5]: 1810
- day16 [6]: 403.431

Substance: interleukin 1; beta
- day3 [4]: 116.7675
- day8 [5]: 415
- day16 [6]: 119.0156

Substance: transforming growth factor; beta
- day3 [1]: 112.4415
- day8 [2]: 208
- day16 [3]: 213.3211

Substance: insulin
- day3 [7]: 367.022
- day8 [8]: 113
- day16 [9]: 176.7437

Substance: dihydrofolate reductase
- day3 [1]: 148.8142
- day8 [2]: 59.6
- day16 [3]: 213.6217

Substance: cytochrome c
- day3 [10]: 547.6708
- day8 [11]: 442
- day16 [12]: 517.6125

Substance: hypothetical protein
- day3 [10]: 1188.199
- day8 [11]: 1490
- day16 [12]: 1593.015
